Results as given in patent US20200247891A1 (University of California, published 2020).
Where a chain is given by its changes, count along the chain named. No constants are given. Whether binding was seen depends on the method and setting. Some binding calls cover weakened binding; strength is not graded here.

T1: murine integrin β8 (on primary murine astrocytes) (mouse) (UniProt Q0VBD0)
T1 sequence (looked up): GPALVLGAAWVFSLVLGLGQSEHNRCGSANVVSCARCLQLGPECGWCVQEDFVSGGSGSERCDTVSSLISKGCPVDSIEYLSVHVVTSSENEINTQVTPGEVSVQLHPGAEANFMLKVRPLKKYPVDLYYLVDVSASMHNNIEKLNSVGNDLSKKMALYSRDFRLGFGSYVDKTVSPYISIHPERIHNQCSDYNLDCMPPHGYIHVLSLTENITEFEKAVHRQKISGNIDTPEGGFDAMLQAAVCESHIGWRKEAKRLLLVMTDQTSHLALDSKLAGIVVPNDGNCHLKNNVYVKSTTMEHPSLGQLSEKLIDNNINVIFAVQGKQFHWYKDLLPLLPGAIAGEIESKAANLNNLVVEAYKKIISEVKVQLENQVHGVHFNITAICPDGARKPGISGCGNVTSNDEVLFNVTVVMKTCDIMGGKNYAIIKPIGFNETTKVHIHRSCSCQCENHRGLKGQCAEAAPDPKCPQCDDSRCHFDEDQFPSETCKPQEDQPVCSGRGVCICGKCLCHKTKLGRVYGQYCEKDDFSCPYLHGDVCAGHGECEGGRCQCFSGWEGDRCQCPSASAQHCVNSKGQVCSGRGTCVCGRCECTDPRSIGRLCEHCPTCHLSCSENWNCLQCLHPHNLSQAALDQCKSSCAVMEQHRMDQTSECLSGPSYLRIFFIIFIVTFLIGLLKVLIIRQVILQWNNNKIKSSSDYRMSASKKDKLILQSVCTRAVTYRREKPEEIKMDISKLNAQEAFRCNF

B1: ADWA-2 (antibody, V domains shown)
VH: QVQLQQSGAELAKPGASMKMSCKASGYTFSSYWIYWVKQRPGQGLEWIGYINPTTGYTEYNQKFRDKATLTADKSSNTAYMQLSSLTSEDSAVYYCATEGGNWEDYWGQGTTLTVSS
VL: DIQMTQTTSSLSASLGDRVTISCRASQDISNYLNWYQQKPDGTVKLLIYYTSRLYSGVPSRFSGSGSGTDYSLTISNLEPKDIATYYCQQFSELPRTFGGGTKLEIK
B2: ADWA-8 (antibody, V domains shown)
VH: QVQLQQPGSELVRPGASVKLSCKASGYTFTSYWMHWVKQRPGQGLEWIGNIYPGSGRTNYDEKFKSKATLTVDTSSSTAYMQLSSLTSEDSAVYYCTRPLQYRYDVYPMDYWGQGTSVTVSS
VL: DIQMTQSPASLSASVGETVTITCRASENIDSYLAWYQQKQGKSPQLLVYAATLLPDGVPSRFSGSGSGTQYSLKINSLQSEDVARYYCQHYYNTPWTFGGGTKLEIK
B3: ADWA-10 (antibody, V domains shown)
VH: EVLLQQSGPELVKPGASVKIPCKASGYTFTNYNMDWVKQSHGKSLEWIGDINPNSGGSVYNQKFKGKATLTVDKSSSTAYMELRSLTSEDTAVYYCARWAYYGERFHYFDYWGQGTTLTVSS
VL: QIVLSQSPAILSASPGEKVTMTCRASSSVSYMHWYQQKSGSSPKPWIYATSNLASGVPARFSGSGSGTSYSLTISRVEAEDAATYYCQQWSSNPPTFGGGTKLEIK
B4: ADWA-11 (antibody, V domains shown)
VH: EVQLQQSGAELVRPGAFVKLSCKASGFNIKDYYMNWVLQRPEQGLEWIGWIDPDNGNTIYDPKFQGKASITADTSSNTAYLQLSSLTSEDTAVYYCARRLLMDYWGQGTSVTVSS
VL: DIVMTQAAPSVPVTPGESVSISCRSTKSLLHFNGNTYLFWFLQRPGQSPQRLIYYMSNLASGVPDRFSGRGSGTDFTLRISRVEAEDVGVYYCMQSLEYPFTFGTGTKLEIK
B5: ADWA-13 (antibody, V domains shown)
VH: B1 VH with M18V, G44V, E59D, R65K, N77S
VL: B1 VL
B6: ADWA-15 (antibody, V domains shown)
VH: QVQLQQPGSVLVRPGASVKLSCKASGYTFTSSWMHWAKQRPGQGLEWIGEIHPNSGNSIYNEKFKDKATLTVDTSSSTAYVDLSSLTSEDSAVYYCARWGDFDYWGQGTTLTVSS
VL: B1 VL with I2V, Y55H, Y71F, K81E, F91Y, S92N, E93K, L94V, R96L, I106L
B7: ADWA-16 (antibody, V domains shown)
VH: B1 VH
VL: B1 VL
B8: ADWA-20 (antibody, V domains shown)
VH: DVQLQESGPGLVKPSQSLSLTCTVTGYSITSDFAWSWIRQFPGNKLEWMGYISYSGSTGYNPSLKSRISITRDTSKNQFFLQLNSVTTEDTATYYCTRRGLYHWGFPYWGQGTLVTVSA
VL: DIVMTQSHKFMSTSVGDRVSITCKASQDVSSAVAWYQQKPGQSPKLLIYWASTRHTGVPDRFTGSGSGTDYTLTVSNVQAEDLALYYCQQHYITPYTFGGGTKLEIK
B9: ADWA-25 (antibody, V domains shown)
VH: EVQLVESGGDLVKPGGSLKLSCAASGFTFSSYGMSWVRQTPDKRLEWVATISGGGSYTYYPDSVKGRFTISRHNAKNTLYLQMSSLKSEDTAMYYCASDPYYYGRRDLAWIAYWGQGTLVTVSA
VL: DIVMTQSQKFMSTSVGDRVSVTCKASQNVGTNVAWYQQKPGQSPKALIYSASYRYSGVPDRFTGSGSGTDFTLTISNVQSEDLAEYFCQQYNSYPYTFGGGTKLEIK

How the values were obtained:
[1] = target: T1, murine integrin β8 (on primary murine astrocytes) (mouse); test: flow cytometry on murine astrocytes
[2] = target: T1, murine integrin β8 (on primary murine astrocytes) (mouse); test: flow cytometry on primary murine astrocytes (FIG. 1)

Binder	binding [1]	binding [2]
B1	binds	binds
B2	binds	binds
B3	binds	binds
B4	binds	binds
B5	binds	binds
B6	binds	binds
B7	binds	binds
B8	binds	binds
B9	binds	binds
